PubChem BioAssay AID1224828, NIAID – 2016
In all, the deposit lists about 17,000 reagents; shown is a random part of them. Of all reagents, 762 (4.5%) were called active. 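Active calls include both raised and lowered p65 entry, mostly lowered; wells with fewer than 50 cells lack a z-score.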 Raw values vary from plate to plate and are shown uncorrected. Entries without a mark were called inactive.

Screen: 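Regulators linking TLR4 signalling to p65 nuclear translocation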 (primary screen)
System: mouse RAW264.7 G9 macrophage reporter cells (GFP-p65, Tnf promoter-mCherry)
Reagent: siRNA pool against mouse genes, 100 nM
Duration: 2 days siRNA transfection, then 40 min LPS before fixation
Challenge: LPS (Salmonella minnesota R595) at 10 ng/ml
Detection: 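Microscopy ratio of nuclear to perinuclear-ring GFP-p65 signal, scaled to the plate median; gene score is the average of two replicate robust z-scores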
Direction: p65 translocation robust z-score: higher = more nuclear NF-kappaB p65 after LPS than the plate median; nuclear/cytoplasmic p65 ratio: higher = more nuclear NF-kappaB p65
Rule for the call: 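Active if robust z is above 3.3 (negative regulators) or below -1.56, the Tlr4 control median (positive regulators); activity score 50 or more; control wells not called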
Calls: active = hit (p65 shift raised or lowered); inactive = no clear change

Knop1 [SID315472384]
- nuclear/cytoplasmic p65 ratio, rep 1: 1.55
- nuclear/cytoplasmic p65 ratio, rep 2: 1.58
- low cell count flag: fewer than 50 cells per well; well left out of scoring

Abcb9 [SID315471460]
- p65 translocation robust z-score: -0.66
- nuclear/cytoplasmic p65 ratio, rep 1: 1.57
- nuclear/cytoplasmic p65 ratio, rep 2: 1.51
- low cell count flag: enough cells to score

1700055D18Rik [SID315474720]
- p65 translocation robust z-score: 2.36
- nuclear/cytoplasmic p65 ratio, rep 1: 1.6
- nuclear/cytoplasmic p65 ratio, rep 2: 1.83
- low cell count flag: enough cells to score

Tpmt [SID315469806]
- p65 translocation robust z-score: 1.3
- nuclear/cytoplasmic p65 ratio, rep 1: 1.58
- nuclear/cytoplasmic p65 ratio, rep 2: 1.79
- low cell count flag: enough cells to score

Ddx3y [SID315470469]
- nuclear/cytoplasmic p65 ratio, rep 1: 1.29
- nuclear/cytoplasmic p65 ratio, rep 2: 1.26
- low cell count flag: fewer than 50 cells per well; well left out of scoring

Krt2 [SID315467697]
- p65 translocation robust z-score: -0.45
- nuclear/cytoplasmic p65 ratio, rep 1: 1.41
- nuclear/cytoplasmic p65 ratio, rep 2: 1.33
- low cell count flag: enough cells to score

Nedd1 [SID315468125]
- p65 translocation robust z-score: -0.99
- nuclear/cytoplasmic p65 ratio, rep 1: 1.69
- nuclear/cytoplasmic p65 ratio, rep 2: 1.39
- low cell count flag: enough cells to score

Rhoc [SID315465502]
- p65 translocation robust z-score: -0.58
- nuclear/cytoplasmic p65 ratio, rep 1: 1.47
- nuclear/cytoplasmic p65 ratio, rep 2: 1.4
- low cell count flag: enough cells to score

AI854703 [SID315479681]
- p65 translocation robust z-score: -1.51
- nuclear/cytoplasmic p65 ratio, rep 1: 1.31
- nuclear/cytoplasmic p65 ratio, rep 2: 1.52
- low cell count flag: enough cells to score

Cgref1 [SID315473571]
- p65 translocation robust z-score: 0.13
- nuclear/cytoplasmic p65 ratio, rep 1: 1.28
- nuclear/cytoplasmic p65 ratio, rep 2: 1.39
- low cell count flag: enough cells to score

Acer3 [SID315472275]
- p65 translocation robust z-score: -1.08
- nuclear/cytoplasmic p65 ratio, rep 1: 1.37
- nuclear/cytoplasmic p65 ratio, rep 2: 1.12
- low cell count flag: enough cells to score

Rps6ka4 [SID315471614]
- nuclear/cytoplasmic p65 ratio, rep 1: 1.24
- nuclear/cytoplasmic p65 ratio, rep 2: 1.04
- low cell count flag: fewer than 50 cells per well; well left out of scoring

Rcsd1 [SID315478515]
- p65 translocation robust z-score: 0.29
- nuclear/cytoplasmic p65 ratio, rep 1: 1.6
- nuclear/cytoplasmic p65 ratio, rep 2: 1.92
- low cell count flag: enough cells to score

Rdm1 [SID315472532]
- p65 translocation robust z-score: -0.92
- nuclear/cytoplasmic p65 ratio, rep 1: 1.29
- nuclear/cytoplasmic p65 ratio, rep 2: 1.09
- low cell count flag: enough cells to score

Cnr1 [SID315466035]
- p65 translocation robust z-score: -1.56
- nuclear/cytoplasmic p65 ratio, rep 1: 1.28
- nuclear/cytoplasmic p65 ratio, rep 2: 1.21
- low cell count flag: enough cells to score

Tgfbr2 [SID315469694]
- p65 translocation robust z-score: 1.06
- nuclear/cytoplasmic p65 ratio, rep 1: 1.89
- nuclear/cytoplasmic p65 ratio, rep 2: 1.52
- low cell count flag: enough cells to score

Myl7 [SID315468066]
- p65 translocation robust z-score: -0.22
- nuclear/cytoplasmic p65 ratio, rep 1: 1.39
- nuclear/cytoplasmic p65 ratio, rep 2: 1.33
- low cell count flag: enough cells to score

Fzd9 [SID315466780]
- p65 translocation robust z-score: -1.23
- nuclear/cytoplasmic p65 ratio, rep 1: 1.33
- nuclear/cytoplasmic p65 ratio, rep 2: 1.41
- low cell count flag: enough cells to score

Map3k9 [SID315481681]
- p65 translocation robust z-score: 1.26
- nuclear/cytoplasmic p65 ratio, rep 1: 1.46
- nuclear/cytoplasmic p65 ratio, rep 2: 1.53
- low cell count flag: enough cells to score

Or14j3 [SID315479978]
- p65 translocation robust z-score: -1.86 (active)
- nuclear/cytoplasmic p65 ratio, rep 1: 1.33
- nuclear/cytoplasmic p65 ratio, rep 2: 1.26
- low cell count flag: enough cells to score

Hrh2 [SID315467298]
- p65 translocation robust z-score: -0.8
- nuclear/cytoplasmic p65 ratio, rep 1: 1.43
- nuclear/cytoplasmic p65 ratio, rep 2: 1.43
- low cell count flag: enough cells to score

Rnf112 [SID315470100]
- p65 translocation robust z-score: -0.75
- nuclear/cytoplasmic p65 ratio, rep 1: 0
- nuclear/cytoplasmic p65 ratio, rep 2: 1.16
- low cell count flag: enough cells to score

Stub1 [SID315471524]
- nuclear/cytoplasmic p65 ratio, rep 1: 1.69
- nuclear/cytoplasmic p65 ratio, rep 2: 1.47
- low cell count flag: fewer than 50 cells per well; well left out of scoring

Elof1 [SID315472232]
- p65 translocation robust z-score: -1.19
- nuclear/cytoplasmic p65 ratio, rep 1: 1.39
- nuclear/cytoplasmic p65 ratio, rep 2: 1.27
- low cell count flag: enough cells to score

Robo1 [SID315468992]
- p65 translocation robust z-score: 0.42
- nuclear/cytoplasmic p65 ratio, rep 1: 1.53
- nuclear/cytoplasmic p65 ratio, rep 2: 1.62
- low cell count flag: enough cells to score

Epha10 [SID315478814]
- p65 translocation robust z-score: -0.05
- nuclear/cytoplasmic p65 ratio, rep 1: 1.63
- nuclear/cytoplasmic p65 ratio, rep 2: 1.42
- low cell count flag: enough cells to score

Pxmp2 [SID315468836]
- p65 translocation robust z-score: 0.08
- nuclear/cytoplasmic p65 ratio, rep 1: 1.54
- nuclear/cytoplasmic p65 ratio, rep 2: 1.75
- low cell count flag: enough cells to score

An excerpt taken from the entries so far, for reference:
Rps6ka4 [SID315471614]
- nuclear/cytoplasmic p65 ratio, rep 1: 1.24
- nuclear/cytoplasmic p65 ratio, rep 2: 1.04
- low cell count flag: fewer than 50 cells per well; well left out of scoring

Rcsd1 [SID315478515]
- p65 translocation robust z-score: 0.29
- nuclear/cytoplasmic p65 ratio, rep 1: 1.6
- nuclear/cytoplasmic p65 ratio, rep 2: 1.92
- low cell count flag: enough cells to score
